We go through four molecules from publication PMC4906169.

For test [1], the target named is T1, STELLO2 (STL2), split-ubiquitin fusion in yeast (Arabidopsis thaliana) (UniProt Q9SCN0).
T1 sequence: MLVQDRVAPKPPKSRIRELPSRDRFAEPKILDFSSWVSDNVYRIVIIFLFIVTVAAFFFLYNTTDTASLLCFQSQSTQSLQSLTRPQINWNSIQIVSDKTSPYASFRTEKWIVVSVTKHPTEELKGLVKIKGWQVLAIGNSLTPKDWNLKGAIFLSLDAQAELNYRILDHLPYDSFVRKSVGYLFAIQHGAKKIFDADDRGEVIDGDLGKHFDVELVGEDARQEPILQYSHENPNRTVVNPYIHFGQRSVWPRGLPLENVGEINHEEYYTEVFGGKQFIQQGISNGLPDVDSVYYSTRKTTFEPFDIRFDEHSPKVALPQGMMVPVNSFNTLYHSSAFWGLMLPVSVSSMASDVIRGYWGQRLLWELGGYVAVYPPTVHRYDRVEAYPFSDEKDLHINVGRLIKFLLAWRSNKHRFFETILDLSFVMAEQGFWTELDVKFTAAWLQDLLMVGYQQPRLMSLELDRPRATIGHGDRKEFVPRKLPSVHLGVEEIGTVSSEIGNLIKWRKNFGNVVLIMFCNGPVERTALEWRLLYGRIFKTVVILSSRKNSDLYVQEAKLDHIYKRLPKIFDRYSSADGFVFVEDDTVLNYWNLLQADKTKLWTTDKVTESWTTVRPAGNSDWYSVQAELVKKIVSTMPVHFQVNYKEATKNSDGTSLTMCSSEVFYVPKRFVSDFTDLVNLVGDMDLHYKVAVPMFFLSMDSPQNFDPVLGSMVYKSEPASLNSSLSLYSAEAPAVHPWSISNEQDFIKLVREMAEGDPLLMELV
Kind of test: two-hybrid; split-ubiquitin membrane yeast two-hybrid (MbYTH); STLs as bait (pTFB1), NubG preys (pADSL-Nx); yeast strain NYM51; growth of at least 50 spotted colonies after 4 days at 28 °C on SD lacking Leu, Trp, His and Ade with 150 mM 3-ammonium-triazole.

The target of test [2] is T2, STELLO1 (STL1), split-ubiquitin fusion in yeast (Arabidopsis thaliana) (UniProt O22943).
T2 sequence: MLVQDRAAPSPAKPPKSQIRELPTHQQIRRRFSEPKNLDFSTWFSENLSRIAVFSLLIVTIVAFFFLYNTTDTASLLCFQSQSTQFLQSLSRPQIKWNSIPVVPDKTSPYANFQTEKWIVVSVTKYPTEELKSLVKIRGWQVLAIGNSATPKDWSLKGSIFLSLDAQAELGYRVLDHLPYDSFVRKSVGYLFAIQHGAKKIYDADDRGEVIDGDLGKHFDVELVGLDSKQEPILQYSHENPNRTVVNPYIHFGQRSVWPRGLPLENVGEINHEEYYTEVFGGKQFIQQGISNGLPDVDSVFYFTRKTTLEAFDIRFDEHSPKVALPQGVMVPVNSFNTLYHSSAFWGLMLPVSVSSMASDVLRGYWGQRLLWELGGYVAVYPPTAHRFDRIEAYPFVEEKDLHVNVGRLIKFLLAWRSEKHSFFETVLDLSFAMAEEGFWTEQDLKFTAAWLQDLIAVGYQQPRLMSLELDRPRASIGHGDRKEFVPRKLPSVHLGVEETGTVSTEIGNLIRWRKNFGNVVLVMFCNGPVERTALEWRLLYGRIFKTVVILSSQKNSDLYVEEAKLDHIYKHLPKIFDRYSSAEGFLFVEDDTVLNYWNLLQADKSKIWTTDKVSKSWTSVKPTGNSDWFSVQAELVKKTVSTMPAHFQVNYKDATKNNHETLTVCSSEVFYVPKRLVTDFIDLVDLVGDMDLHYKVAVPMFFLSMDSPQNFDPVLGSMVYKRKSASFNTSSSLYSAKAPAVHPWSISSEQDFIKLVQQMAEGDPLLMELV
Described as above.

Results are given in words; binding and its absence hold for the method and conditions named. Some entries that bind do so weakly or less than the wild type. Tags and fused reporters may be left off the sequences shown.

B1: Cellulose synthase CesA1, NubG prey fusion in yeast (protein, UniProt O48946 1-1081)
chain: MEASAGLVAGSYRRNELVRIRHESDGGTKPLKNMNGQICQICGDDVGLAETGDVFVACNECAFPVCRPCYEYERKDGTQCCPQCKTRFRRHRGSPRVEGDEDEDDVDDIENEFNYAQGANKARHQRHGEEFSSSSRHESQPIPLLTHGHTVSGEIRTPDTQSVRTTSGPLGPSDRNAISSPYIDPRQPVPVRIVDPSKDLNSYGLGNVDWKERVEGWKLKQEKNMLQMTGKYHEGKGGEIEGTGSNGEELQMADDTRLPMSRVVPIPSSRLTPYRVVIILRLIILCFFLQYRTTHPVKNAYPLWLTSVICEIWFAFSWLLDQFPKWYPINRETYLDRLAIRYDRDGEPSQLVPVDVFVSTVDPLKEPPLVTANTVLSILSVDYPVDKVACYVSDDGSAMLTFESLSETAEFAKKWVPFCKKFNIEPRAPEFYFAQKIDYLKDKIQPSFVKERRAMKREYEEFKVRINALVAKAQKIPEEGWTMQDGTPWPGNNTRDHPGMIQVFLGHSGGLDTDGNELPRLIYVSREKRPGFQHHKKAGAMNALIRVSAVLTNGAYLLNVDCDHYFNNSKAIKEAMCFMMDPAIGKKCCYVQFPQRFDGIDLHDRYANRNIVFFDINMKGLDGIQGPVYVGTGCCFNRQALYGYDPVLTEEDLEPNIIVKSCCGSRKKGKSSKKYNYEKRRGINRSDSNAPLFNMEDIDEGFEGYDDERSILMSQRSVEKRFGQSPVFIAATFMEQGGIPPTTNPATLLKEAIHVISCGYEDKTEWGKEIGWIYGSVTEDILTGFKMHARGWISIYCNPPRPAFKGSAPINLSDRLNQVLRWALGSIEILLSRHCPIWYGYHGRLRLLERIAYINTIVYPITSIPLIAYCILPAFCLITDRFIIPEISNYASIWFILLFISIAVTGILELRWSGVSIEDWWRNEQFWVIGGTSAHLFAVFQGLLKVLAGIDTNFTVTSKATDEDGDFAELYIFKWTALLIPPTTVLLVNLIGIVAGVSYAVNSGYQSWGPLFGKLFFALWVIAHLYPFLKGLLGRQNRTPTIVIVWSVLLASIFSLLWVRINPFVDANPNANNFNGKGGVF
Regarding B1, the binding result in test [1] and in test [2] was “binds” each time.

B2: STELLO2 (STL2), split-ubiquitin fusion in yeast (protein, UniProt Q9SCN0 1-765)
chain: T1 sequence
On to B2, for which the binding result in test [1] is recorded as “binds”.

B3: Cellulose synthase CesA6, NubG prey fusion in yeast (protein, UniProt Q94JQ6 1-1084)
chain: MNTGGRLIAGSHNRNEFVLINADENARIRSVQELSGQTCQICRDEIELTVDGEPFVACNECAFPVCRPCYEYERREGNQACPQCKTRFKRLKGSPRVEGDEEEDDIDDLDNEFEYGNNGIGFDQVSEGMSISRRNSGFPQSDLDSAPPGSQIPLLTYGDEDVEISSDRHALIVPPSLGGHGNRVHPVSLSDPTVAAHPRPMVPQKDLAVYGYGSVAWKDRMEEWKRKQNEKLQVVRHEGDPDFEDGDDADFPMMDEGRQPLSRKIPIKSSKINPYRMLIVLRLVILGLFFHYRILHPVKDAYALWLISVICEIWFAVSWVLDQFPKWYPIERETYLDRLSLRYEKEGKPSGLSPVDVFVSTVDPLKEPPLITANTVLSILAVDYPVDKVACYVSDDGAAMLTFEALSETAEFARKWVPFCKKYCIEPRAPEWYFCHKMDYLKNKVHPAFVRERRAMKRDYEEFKVKINALVATAQKVPEDGWTMQDGTPWPGNSVRDHPGMIQVFLGSDGVRDVENNELPRLVYVSREKRPGFDHHKKAGAMNSLIRVSGVLSNAPYLLNVDCDHYINNSKALREAMCFMMDPQSGKKICYVQFPQRFDGIDRHDRYSNRNVVFFDINMKGLDGLQGPIYVGTGCVFRRQALYGFDAPKKKKGPRKTCNCWPKWCLLCFGSRKNRKAKTVAADKKKKNREASKQIHALENIEEGRVTKGSNVEQSTEAMQMKLEKKFGQSPVFVASARMENGGMARNASPACLLKEAIQVISCGYEDKTEWGKEIGWIYGSVTEDILTGFKMHSHGWRSVYCTPKLAAFKGSAPINLSDRLHQVLRWALGSVEIFLSRHCPIWYGYGGGLKWLERLSYINSVVYPWTSLPLIVYCSLPAICLLTGKFIVPEISNYASILFMALFSSIAITGILEMQWGKVGIDDWWRNEQFWVIGGVSAHLFALFQGLLKVLAGVDTNFTVTSKAADDGEFSDLYLFKWTSLLIPPMTLLIINVIGVIVGVSDAISNGYDSWGPLFGRLFFALWVIIHLYPFLKGLLGKQDRMPTIIVVWSILLASILTLLWVRVNPFVAKGGPILEICGLDCL
For the molecule B3, the binding entry in test [1] and in test [2] was “binds” in each case.

B4: Cellulose synthase CesA7, NubG prey fusion in yeast (protein, UniProt Q9SWW6 1-1026)
chain: MEASAGLVAGSHNRNELVVIHNHEEPKPLKNLDGQFCEICGDQIGLTVEGDLFVACNECGFPACRPCYEYERREGTQNCPQCKTRYKRLRGSPRVEGDEDEEDIDDIEYEFNIEHEQDKHKHSAEAMLYGKMSYGRGPEDDENGRFPPVIAGGHSGEFPVGGGYGNGEHGLHKRVHPYPSSEAGSEGGWRERMDDWKLQHGNLGPEPDDDPEMGLIDEARQPLSRKVPIASSKINPYRMVIVARLVILAVFLRYRLLNPVHDALGLWLTSVICEIWFAVSWILDQFPKWFPIERETYLDRLSLRYEREGEPNMLAPVDVFVSTVDPLKEPPLVTSNTVLSILAMDYPVEKISCYVSDDGASMLTFESLSETAEFARKWVPFCKKFSIEPRAPEMYFTLKVDYLQDKVHPTFVKERRAMKREYEEFKVRINAQVAKASKVPLEGWIMQDGTPWPGNNTKDHPGMIQVFLGHSGGFDVEGHELPRLVYVSREKRPGFQHHKKAGAMNALVRVAGVLTNAPFMLNLDCDHYVNNSKAVREAMCFLMDPQIGKKVCYVQFPQRFDGIDTNDRYANRNTVFFDINMKGLDGIQGPVYVGTGCVFKRQALYGYEPPKGPKRPKMISCGCCPCFGRRRKNKKFSKNDMNGDVAALGGAEGDKEHLMSEMNFEKTFGQSSIFVTSTLMEEGGVPPSSSPAVLLKEAIHVISCGYEDKTEWGTELGWIYGSITEDILTGFKMHCRGWRSIYCMPKRPAFKGSAPINLSDRLNQVLRWALGSVEIFFSRHSPLWYGYKGGKLKWLERFAYANTTIYPFTSIPLLAYCILPAICLLTDKFIMPPISTFASLFFISLFMSIIVTGILELRWSGVSIEEWWRNEQFWVIGGISAHLFAVVQGLLKILAGIDTNFTVTSKATDDDDFGELYAFKWTTLLIPPTTVLIINIVGVVAGISDAINNGYQSWGPLFGKLFFSFWVIVHLYPFLKGLMGRQNRTPTIVVIWSVLLASIFSLLWVRIDPFVLKTKGPDTSKCGINC
For the molecule B4, the binding entry in test [1] and in test [2] was “binds” throughout.
